Experimental data taken from patent publication US20020119917A1 (priority 1996, published 2002).

Assays:
[1] = general procedure: Fmoc solid-phase peptide synthesis; Wang resin preloaded with N-Fmoc C-terminal amino acid (0.3-0.7 mmol/g); rink amide for peptides 11-14; PyBop / 4-methyl-morpholine (NMM); details: for final HPLC purity / isolated mass: whole synthesis; for final HPLC purity: analytical RP-HPLC, Lichrospher-100 RP-18, UV 220 nm, scale of the general procedure 12.5 μmol; for isolated mass: scale 12.5 μmols
[2] = general procedure: Fmoc solid-phase peptide synthesis; Wang resin; PyBop / 4-methyl-morpholine (NMM); details: whole synthesis, scale 12.5 μmol
[3] = general procedure: Fmoc solid-phase peptide synthesis; rink amide; PyBop / 4-methyl-morpholine (NMM); details: whole synthesis, scale 12.5 μmols

Substance	final HPLC purity [1]	isolated mass [1]	conjugation yield ([1]; conjugation step, one disulfide bridge, sequence written open)	isolated mass [2]	isolated mass [3]
CH3OCO(CH2)2CO-Val-Thr-Val-Ala-Pro-Val-His-Ile-OH	above 98%	approx. 10 mg			
1-adamantyl-NH—CO-Val-Thr-Val-Ala-Pro-Val-His-Ile-OH	above 97%	approx. 10 mg			
Gly79-Ser-Glu-Ile-Leu-Phe-Glu-Val-Pro-Glu-Val-Thr-Val-Ala-Pro-Val-His-Ile-Cys97-Cys36-His-Leu-Phe39			75%		
CH3(CH2)6CO-Val-Thr-Val-Ala-Pro-Val-His-Ile-OH	above 98%	approx. 10 mg			
CH3CONH(CH2)5CO-Val-Thr-Val-Ala-Pro-Val-His-Ile-OH	above 97%	approx. 12 mg			
H-VTVAPVHI-OH	above 99%			approx. 12 mg	
H-VTVAPVHI-NH2	above 98%				approx. 8 mg
